Measured values taken from patent US8435960B2, “Devices for improved wound management” (Lakewood-Amedex, Inc., priority 1998, dated 2013).
Some results were stated once for a whole list of compounds, not compound by compound.

Test system: Pseudomonas aeruginosa (Strain Utah 4)
Experiment: Burn wound infection model, subcutaneous (systemic) infection
Parameters: species or system BALB/c female mice
Settings: mouse, in vivo

HO—CH2CH2CH2CH2-ACg•CgC•CAU•Ugg-CH2CH2CH2CH2—OH [B2]
survival rates: 90-100%
